Results from the supplement of paper PMC6411743.
± gives the standard deviation of the averaged measurements. The list shows a part of the results, in another mix than the full data.

The chains behind the UniProt entries cited, without tags or fusion partners. Where a name states a change or a piece, a line headed by the entry shows the natural chain unless it says otherwise.
UniProt Q8N4V1: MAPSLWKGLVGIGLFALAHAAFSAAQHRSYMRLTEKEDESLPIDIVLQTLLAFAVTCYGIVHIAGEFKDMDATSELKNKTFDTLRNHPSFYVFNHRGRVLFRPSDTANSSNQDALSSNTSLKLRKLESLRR
UniProt Q8NHP8: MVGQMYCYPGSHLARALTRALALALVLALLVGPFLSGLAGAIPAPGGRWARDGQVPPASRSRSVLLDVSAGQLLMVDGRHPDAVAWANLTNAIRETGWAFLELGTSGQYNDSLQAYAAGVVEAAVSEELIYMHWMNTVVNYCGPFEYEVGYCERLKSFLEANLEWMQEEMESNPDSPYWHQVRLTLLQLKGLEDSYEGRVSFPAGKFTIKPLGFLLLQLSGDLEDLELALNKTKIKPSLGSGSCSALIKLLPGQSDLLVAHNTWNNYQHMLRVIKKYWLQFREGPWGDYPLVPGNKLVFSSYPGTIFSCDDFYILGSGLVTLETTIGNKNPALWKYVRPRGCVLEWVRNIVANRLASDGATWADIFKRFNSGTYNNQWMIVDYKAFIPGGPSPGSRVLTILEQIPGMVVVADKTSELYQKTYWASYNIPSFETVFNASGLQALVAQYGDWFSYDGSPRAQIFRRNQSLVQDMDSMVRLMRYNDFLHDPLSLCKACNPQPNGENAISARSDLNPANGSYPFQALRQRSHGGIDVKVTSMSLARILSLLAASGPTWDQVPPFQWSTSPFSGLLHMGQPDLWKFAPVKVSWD
UniProt Q8IVS2: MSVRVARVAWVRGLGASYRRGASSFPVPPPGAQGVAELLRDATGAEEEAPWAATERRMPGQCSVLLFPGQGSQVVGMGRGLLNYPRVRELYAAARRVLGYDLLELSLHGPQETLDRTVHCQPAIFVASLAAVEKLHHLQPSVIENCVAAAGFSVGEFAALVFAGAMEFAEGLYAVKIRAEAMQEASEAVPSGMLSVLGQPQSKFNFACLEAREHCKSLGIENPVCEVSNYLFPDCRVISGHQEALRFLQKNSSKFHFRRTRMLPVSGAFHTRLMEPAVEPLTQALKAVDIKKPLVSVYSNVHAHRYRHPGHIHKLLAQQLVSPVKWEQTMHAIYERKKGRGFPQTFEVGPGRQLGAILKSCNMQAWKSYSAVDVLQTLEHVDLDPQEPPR
UniProt Q8NEN9: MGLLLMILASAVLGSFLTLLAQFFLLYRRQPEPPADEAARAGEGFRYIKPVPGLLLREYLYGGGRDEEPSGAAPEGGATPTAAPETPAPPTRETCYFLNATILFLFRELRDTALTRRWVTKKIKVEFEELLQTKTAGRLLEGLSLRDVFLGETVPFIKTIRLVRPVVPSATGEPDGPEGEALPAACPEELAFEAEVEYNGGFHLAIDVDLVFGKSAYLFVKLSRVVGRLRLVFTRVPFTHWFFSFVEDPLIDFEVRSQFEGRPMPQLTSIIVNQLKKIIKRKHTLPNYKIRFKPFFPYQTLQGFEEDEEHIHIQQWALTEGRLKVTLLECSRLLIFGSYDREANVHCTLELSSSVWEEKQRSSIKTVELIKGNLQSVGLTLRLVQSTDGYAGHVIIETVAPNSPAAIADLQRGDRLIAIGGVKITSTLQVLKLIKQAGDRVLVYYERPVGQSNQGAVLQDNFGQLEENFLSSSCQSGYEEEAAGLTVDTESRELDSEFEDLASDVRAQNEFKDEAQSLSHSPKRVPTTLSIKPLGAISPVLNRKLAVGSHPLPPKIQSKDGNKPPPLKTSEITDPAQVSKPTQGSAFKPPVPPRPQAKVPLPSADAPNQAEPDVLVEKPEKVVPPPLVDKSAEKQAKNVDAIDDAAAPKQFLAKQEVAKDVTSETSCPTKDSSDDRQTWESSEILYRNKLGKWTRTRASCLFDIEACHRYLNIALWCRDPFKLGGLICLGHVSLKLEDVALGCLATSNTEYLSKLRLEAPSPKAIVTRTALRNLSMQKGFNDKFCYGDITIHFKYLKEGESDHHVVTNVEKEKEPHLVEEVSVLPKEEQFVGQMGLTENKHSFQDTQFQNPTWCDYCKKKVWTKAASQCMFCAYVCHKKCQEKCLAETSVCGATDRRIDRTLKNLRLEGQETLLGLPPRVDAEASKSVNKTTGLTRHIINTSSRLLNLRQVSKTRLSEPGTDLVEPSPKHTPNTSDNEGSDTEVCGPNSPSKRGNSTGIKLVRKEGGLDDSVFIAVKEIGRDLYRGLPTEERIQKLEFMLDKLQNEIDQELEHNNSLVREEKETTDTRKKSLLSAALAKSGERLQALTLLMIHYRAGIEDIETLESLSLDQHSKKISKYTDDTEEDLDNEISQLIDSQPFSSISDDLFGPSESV
UniProt Q8IWT0: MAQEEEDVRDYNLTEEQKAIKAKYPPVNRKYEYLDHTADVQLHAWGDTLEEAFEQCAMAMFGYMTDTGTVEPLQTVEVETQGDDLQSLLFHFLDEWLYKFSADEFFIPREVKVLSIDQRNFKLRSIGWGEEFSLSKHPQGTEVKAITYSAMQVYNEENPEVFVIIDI
UniProt Q8IYB8: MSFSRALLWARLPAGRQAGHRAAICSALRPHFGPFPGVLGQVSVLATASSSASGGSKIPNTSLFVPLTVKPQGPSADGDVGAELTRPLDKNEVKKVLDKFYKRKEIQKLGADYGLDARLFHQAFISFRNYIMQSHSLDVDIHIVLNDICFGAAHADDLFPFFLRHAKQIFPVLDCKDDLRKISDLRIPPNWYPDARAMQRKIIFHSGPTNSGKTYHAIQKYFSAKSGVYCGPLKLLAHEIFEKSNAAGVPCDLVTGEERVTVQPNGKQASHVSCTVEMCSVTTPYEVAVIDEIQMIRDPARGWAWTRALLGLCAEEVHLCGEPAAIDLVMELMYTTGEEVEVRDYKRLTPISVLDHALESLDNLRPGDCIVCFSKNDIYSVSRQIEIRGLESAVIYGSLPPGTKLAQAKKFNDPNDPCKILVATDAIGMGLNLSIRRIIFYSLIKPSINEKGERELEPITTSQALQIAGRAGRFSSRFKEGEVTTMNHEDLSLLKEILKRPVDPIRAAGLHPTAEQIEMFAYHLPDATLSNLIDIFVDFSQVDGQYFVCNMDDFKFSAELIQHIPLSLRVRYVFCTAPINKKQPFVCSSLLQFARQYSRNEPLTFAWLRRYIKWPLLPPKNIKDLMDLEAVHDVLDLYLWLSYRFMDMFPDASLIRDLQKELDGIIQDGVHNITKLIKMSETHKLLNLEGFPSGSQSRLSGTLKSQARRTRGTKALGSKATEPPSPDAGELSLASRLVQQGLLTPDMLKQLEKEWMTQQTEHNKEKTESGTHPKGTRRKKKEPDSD
UniProt Q8N2Z9: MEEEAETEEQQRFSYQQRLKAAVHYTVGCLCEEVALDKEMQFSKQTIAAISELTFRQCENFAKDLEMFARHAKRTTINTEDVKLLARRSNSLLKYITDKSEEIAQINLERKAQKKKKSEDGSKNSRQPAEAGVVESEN
UniProt Q8TB72: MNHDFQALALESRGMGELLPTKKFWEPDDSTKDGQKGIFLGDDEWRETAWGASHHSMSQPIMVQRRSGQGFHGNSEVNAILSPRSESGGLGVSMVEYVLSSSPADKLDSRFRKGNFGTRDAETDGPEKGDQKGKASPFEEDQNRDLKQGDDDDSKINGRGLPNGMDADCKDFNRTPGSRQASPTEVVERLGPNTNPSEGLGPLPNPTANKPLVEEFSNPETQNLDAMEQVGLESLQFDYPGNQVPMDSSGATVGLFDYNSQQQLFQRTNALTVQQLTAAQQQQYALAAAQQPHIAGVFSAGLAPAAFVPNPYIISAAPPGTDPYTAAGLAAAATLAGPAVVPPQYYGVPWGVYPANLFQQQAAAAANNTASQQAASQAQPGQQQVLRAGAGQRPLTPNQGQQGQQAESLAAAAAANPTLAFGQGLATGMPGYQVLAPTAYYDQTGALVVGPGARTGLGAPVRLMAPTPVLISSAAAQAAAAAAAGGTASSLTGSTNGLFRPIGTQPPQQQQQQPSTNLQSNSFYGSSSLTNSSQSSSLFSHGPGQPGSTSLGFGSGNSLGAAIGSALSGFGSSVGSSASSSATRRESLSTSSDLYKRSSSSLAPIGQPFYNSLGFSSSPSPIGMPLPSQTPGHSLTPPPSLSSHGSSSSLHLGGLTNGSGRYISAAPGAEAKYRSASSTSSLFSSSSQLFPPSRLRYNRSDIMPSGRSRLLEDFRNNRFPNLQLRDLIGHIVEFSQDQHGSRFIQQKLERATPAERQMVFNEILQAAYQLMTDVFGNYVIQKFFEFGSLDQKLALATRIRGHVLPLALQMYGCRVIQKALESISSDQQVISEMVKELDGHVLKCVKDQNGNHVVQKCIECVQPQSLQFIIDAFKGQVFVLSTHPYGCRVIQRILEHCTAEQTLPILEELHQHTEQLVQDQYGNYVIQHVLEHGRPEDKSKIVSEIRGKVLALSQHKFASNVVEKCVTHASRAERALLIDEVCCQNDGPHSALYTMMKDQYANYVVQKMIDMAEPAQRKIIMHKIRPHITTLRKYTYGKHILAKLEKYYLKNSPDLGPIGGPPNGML
UniProt Q8IYM9: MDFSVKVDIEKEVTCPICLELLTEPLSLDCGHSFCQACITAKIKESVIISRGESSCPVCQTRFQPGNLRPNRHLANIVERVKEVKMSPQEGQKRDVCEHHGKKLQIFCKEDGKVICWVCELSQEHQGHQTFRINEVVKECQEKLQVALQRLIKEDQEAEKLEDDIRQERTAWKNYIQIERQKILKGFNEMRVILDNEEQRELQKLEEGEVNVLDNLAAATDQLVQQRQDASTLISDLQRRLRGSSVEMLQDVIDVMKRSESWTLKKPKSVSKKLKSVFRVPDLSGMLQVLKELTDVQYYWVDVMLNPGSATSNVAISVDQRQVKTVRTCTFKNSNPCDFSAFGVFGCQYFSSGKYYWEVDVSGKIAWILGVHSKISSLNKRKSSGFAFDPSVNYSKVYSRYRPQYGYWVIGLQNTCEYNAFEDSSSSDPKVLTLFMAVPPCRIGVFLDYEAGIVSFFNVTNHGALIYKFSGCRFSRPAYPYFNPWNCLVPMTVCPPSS
UniProt Q8NBM4: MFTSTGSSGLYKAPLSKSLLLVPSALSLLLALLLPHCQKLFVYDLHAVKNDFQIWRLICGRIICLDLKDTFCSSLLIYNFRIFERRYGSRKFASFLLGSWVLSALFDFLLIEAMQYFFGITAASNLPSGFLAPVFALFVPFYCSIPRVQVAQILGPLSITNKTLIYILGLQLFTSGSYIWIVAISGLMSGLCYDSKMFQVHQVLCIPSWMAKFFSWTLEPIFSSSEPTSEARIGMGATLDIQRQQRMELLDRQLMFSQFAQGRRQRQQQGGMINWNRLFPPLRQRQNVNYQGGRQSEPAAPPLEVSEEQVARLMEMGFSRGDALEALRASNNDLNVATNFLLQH
UniProt Q8TAF3: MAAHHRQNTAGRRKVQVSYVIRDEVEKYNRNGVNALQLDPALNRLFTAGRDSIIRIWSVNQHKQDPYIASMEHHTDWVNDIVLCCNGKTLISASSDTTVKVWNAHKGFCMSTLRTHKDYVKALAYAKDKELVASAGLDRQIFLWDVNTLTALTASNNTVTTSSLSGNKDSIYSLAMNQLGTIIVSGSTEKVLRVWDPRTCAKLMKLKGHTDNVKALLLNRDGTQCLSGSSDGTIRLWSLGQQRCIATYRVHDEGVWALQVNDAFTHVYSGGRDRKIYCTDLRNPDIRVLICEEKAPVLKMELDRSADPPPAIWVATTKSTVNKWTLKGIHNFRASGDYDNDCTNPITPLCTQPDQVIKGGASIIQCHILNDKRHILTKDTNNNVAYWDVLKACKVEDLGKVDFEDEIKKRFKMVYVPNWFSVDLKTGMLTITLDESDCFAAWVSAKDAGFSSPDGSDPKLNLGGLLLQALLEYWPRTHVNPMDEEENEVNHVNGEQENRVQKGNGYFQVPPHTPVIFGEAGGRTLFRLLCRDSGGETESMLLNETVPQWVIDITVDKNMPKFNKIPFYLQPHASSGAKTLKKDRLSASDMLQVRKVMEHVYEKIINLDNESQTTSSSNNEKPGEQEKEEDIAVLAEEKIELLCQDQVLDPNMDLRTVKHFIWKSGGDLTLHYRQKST
UniProt Q8NCL4: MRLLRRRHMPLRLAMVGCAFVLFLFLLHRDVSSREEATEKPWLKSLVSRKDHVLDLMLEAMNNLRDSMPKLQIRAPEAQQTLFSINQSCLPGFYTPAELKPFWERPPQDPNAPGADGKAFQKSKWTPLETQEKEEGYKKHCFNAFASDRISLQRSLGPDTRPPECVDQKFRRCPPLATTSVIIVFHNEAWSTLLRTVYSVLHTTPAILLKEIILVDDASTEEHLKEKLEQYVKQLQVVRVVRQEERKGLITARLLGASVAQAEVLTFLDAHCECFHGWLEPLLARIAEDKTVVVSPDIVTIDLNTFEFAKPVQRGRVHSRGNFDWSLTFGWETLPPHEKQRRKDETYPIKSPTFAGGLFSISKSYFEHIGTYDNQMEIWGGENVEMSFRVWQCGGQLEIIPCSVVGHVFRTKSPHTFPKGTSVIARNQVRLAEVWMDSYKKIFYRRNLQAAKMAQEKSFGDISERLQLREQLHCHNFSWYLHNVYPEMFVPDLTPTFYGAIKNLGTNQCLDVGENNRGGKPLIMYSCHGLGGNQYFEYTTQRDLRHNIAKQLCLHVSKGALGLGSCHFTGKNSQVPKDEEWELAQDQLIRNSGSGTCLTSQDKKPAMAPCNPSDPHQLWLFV

Compound: Nc1ncnc2c1ncn2[C@@H]1O[C@H](COP(=O)(O)OP(=O)(O)OP(=O)(O)O)[C@@H](O)[C@H]1O [adenosine triphosphate]
Experiment: NP40-soluble protein abundance relative to vehicle (solubility fold change) (ratio); higher = more soluble protein in presence of ATP
Summary of the method: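 Crude Jurkat lysate, prepared by Dounce homogenisation, was exposed to eight concentrations from 0.1 to 10 mM for 10 min at room temperature and then 3 min at 37 °C. Solubilisation used 0.8% NP40 with benzonase for 60 min at 4 °C, followed by ultracentrifugation and TMT labelling of the supernatant for LC-MS/MS. After vsn normalisation of intensities, each value is the fold change against the detergent-processed vehicle within each replicate, across three independent experiments.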

Target	NP40-soluble protein abundance (concentration: 1mM)	NP40-soluble protein abundance (concentration: 2mM)	NP40-soluble protein abundance (concentration: 4mM)	NP40-soluble protein abundance (concentration: 6mM)	NP40-soluble protein abundance (concentration: 8mM)	NP40-soluble protein abundance (concentration: 10mM)
KBTBD8 (UniProt Q8NFY9)	1.04 ± 0.1	1.07 ± 0.068	1.06 ± 0.12	0.996 ± 0.077	1.09 ± 0.06	1.07 ± 0.1
UniProt Q8IXQ6-2|Q8IXQ6-3	1.08 ± 0.041	1.09 ± 0.015	1.09 ± 0.048	1.1 ± 0.05	1.149 ± 0.0082	1.136 ± 0.0097
MICALL1 (UniProt Q8N3F8)	0.931 ± 0.034	0.958 ± 0.016	0.946 ± 0.029	0.9653 ± 0.0025	0.917 ± 0.015	0.925 ± 0.016
ZNF740 (UniProt Q8NDX6)	1.05 ± 0.026	0.977 ± 0.014	1.06 ± 0.012	1.05 ± 0.036	1.11 ± 0.05	1.14 ± 0.086
UniProt Q8N0X7	1.03 ± 0.041	0.996 ± 0.015	0.986 ± 0.06	1.019 ± 0.0088	0.983 ± 0.021	1.01 ± 0.022
SRFBP1 (UniProt Q8NEF9)	1.04 ± 0.053	1.03 ± 0.036	1.05 ± 0.048	1.08 ± 0.049	1.05 ± 0.012	1.06 ± 0.048
UniProt Q8N4V1 and related entries	0.917 ± 0.16	0.851 ± 0.17	0.847 ± 0.2	0.856 ± 0.2	0.869 ± 0.19	0.738 ± 0.15
PIAS4 (UniProt Q8N2W9)	0.933 ± 0.067	0.969 ± 0.051	0.997 ± 0.076	0.934 ± 0.032	0.971 ± 0.084	0.954 ± 0.066
UniProt Q8ND25 and related entries	0.909 ± 0.13	0.9449 ± 0.0092	0.947 ± 0.049	0.999 ± 0.023	0.91 ± 0.05	0.903 ± 0.042
INTS1 (UniProt Q8N201)	1.06 ± 0.032	1.07 ± 0.043	1.131 ± 0.0082	1.08 ± 0.048	1.21 ± 0.071	1.21 ± 0.06
TMEM199 (UniProt Q8N511)	0.85 ± 0.064	0.881 ± 0.03	0.939 ± 0.042	0.894 ± 0.044	0.904 ± 0.023	0.946 ± 0.036
UniProt Q8TAT6 and related entries	0.976 ± 0.041	0.9832 ± 0.0064	0.965 ± 0.022	0.952 ± 0.054	0.966 ± 0.038	0.963 ± 0.013
UniProt Q8NHP8 and related entries	0.878 ± 0.018	0.946 ± 0.075	0.92 ± 0.049	0.872 ± 0.049	0.88 ± 0.017	0.909 ± 0.037
NUP43 (UniProt Q8NFH3)	1.03 ± 0.081	1.06 ± 0.081	1.04 ± 0.088	0.967 ± 0.13	1.04 ± 0.12	1.01 ± 0.071
UniProt Q8IY95 and related entries	0.988 ± 0.096	0.995 ± 0.042	0.957 ± 0.071	0.918 ± 0.078	0.979 ± 0.068	0.951 ± 0.05
UniProt Q8IVS2	1.01 ± 0.068	1.06 ± 0.075	1.08 ± 0.026	1.06 ± 0.055	1.08 ± 0.089	1.09 ± 0.09
CXorf38 (UniProt Q8TB03)	0.97 ± 0.035	0.968 ± 0.015	0.97 ± 0.018	0.94 ± 0.047	0.929 ± 0.038	0.947 ± 0.032
CNNM3 (UniProt Q8NE01)	1.01 ± 0.095	0.986 ± 0.11	1 ± 0.1	0.942 ± 0.1	1.01 ± 0.06	0.979 ± 0.087
GCC2 (UniProt Q8IWJ2)	0.971 ± 0.03	0.971 ± 0.01	0.963 ± 0.017	0.9999 ± 0.0089	0.9388 ± 0.0063	0.9413 ± 0.0072
UniProt Q8NEB9	1.02 ± 0.072	1.03 ± 0.067	1.02 ± 0.1	0.98 ± 0.073	1.03 ± 0.04	1.01 ± 0.036

Target	NP40-soluble protein abundance (concentration: 1mM)	NP40-soluble protein abundance (concentration: 2mM)	NP40-soluble protein abundance (concentration: 4mM)	NP40-soluble protein abundance (concentration: 6mM)	NP40-soluble protein abundance (concentration: 8mM)	NP40-soluble protein abundance (concentration: 10mM)
CMIP (UniProt Q8IY22)	0.991 ± 0.12	1.03 ± 0.074	1.01 ± 0.12	1.05 ± 0.077	1.04 ± 0.067	1.01 ± 0.075
UniProt Q8N2K0 and related entries	1.06 ± 0.026	1.04 ± 0.037	1.1 ± 0.03	1.03 ± 0.035	1.1 ± 0.028	1.07 ± 0.052
PDZD8 (UniProt Q8NEN9)	0.986 ± 0.036	0.943 ± 0.029	0.992 ± 0.041	1.02 ± 0.027	0.941 ± 0.038	0.967 ± 0.061
LRRC47 (UniProt Q8N1G4)	1 ± 0.0066	1.02 ± 0.034	1.03 ± 0.03	1.06 ± 0.035	1.04 ± 0.043	1.05 ± 0.053
UniProt Q8N2F6 and related entries	0.979 ± 0.03	0.994 ± 0.034	0.953 ± 0.066	1.03 ± 0.038	0.977 ± 0.059	0.942 ± 0.037
ZBTB8OS (UniProt Q8IWT0)	1.13 ± 0.23	1.03 ± 0.094	1.09 ± 0.24	1.06 ± 0.17	1.08 ± 0.24	0.972 ± 0.041
UniProt Q8N9N5 and related entries	1.01 ± 0.084	1.01 ± 0.024	1 ± 0.035	0.989 ± 0.054	0.949 ± 0.03	1 ± 0.011
UniProt Q8NI60 and related entries	0.979 ± 0.089	1.02 ± 0.084	1.02 ± 0.077	0.946 ± 0.06	0.993 ± 0.026	1.03 ± 0.085
UBR7 (UniProt Q8N806)	0.975 ± 0.037	0.983 ± 0.024	0.963 ± 0.038	0.957 ± 0.029	0.945 ± 0.047	0.951 ± 0.042
LZTR1 (UniProt Q8N653)	0.994 ± 0.076	0.8911 ± 0.0029	0.924 ± 0.069	0.861 ± 0.08	0.921 ± 0.07	0.857 ± 0.022
SUPV3L1 (UniProt Q8IYB8)	1.05 ± 0.028	1.02 ± 0.029	1.01 ± 0.02	0.969 ± 0.059	1.03 ± 0.026	0.986 ± 0.033
UniProt Q8N9V3 and related entries	0.989 ± 0.018	0.995 ± 0.02	0.997 ± 0.072	0.981 ± 0.032	0.991 ± 0.036	0.989 ± 0.054
UniProt Q8NEZ2 and related entries	0.952 ± 0.015	0.966 ± 0.034	0.94 ± 0.043	0.9798 ± 0.0046	0.935 ± 0.017	0.896 ± 0.085
UniProt Q8N5G2	0.995 ± 0.076	1.07 ± 0.11	1.08 ± 0.12	1.13 ± 0.13	1.1 ± 0.14	1.15 ± 0.18
FTSJ3 (UniProt Q8IY81)	1.04 ± 0.086	1.06 ± 0.064	1.1 ± 0.084	1.15 ± 0.091	1.15 ± 0.075	1.17 ± 0.14
UniProt Q8IW45	1 ± 0.019	0.973 ± 0.026	1.01 ± 0.022	1.02 ± 0.031	1.01 ± 0.061	1.02 ± 0.046
UniProt Q8N2Z9	0.922 ± 0.11	0.865 ± 0.2	0.97 ± 0.09	0.975 ± 0.09	0.933 ± 0.13	0.883 ± 0.16
UniProt Q8ND56 and related entries	0.964 ± 0.079	0.96 ± 0.034	0.952 ± 0.036	1.01 ± 0.051	0.964 ± 0.035	0.967 ± 0.025
GADD45GIP1 (UniProt Q8TAE8)	1.05 ± 0.13	0.894 ± 0.064	0.923 ± 0.14	0.908 ± 0.19	0.938 ± 0.12	0.813 ± 0.21
UniProt Q8NBU5	1.02 ± 0.059	0.981 ± 0.029	0.939 ± 0.047	0.983 ± 0.095	0.964 ± 0.031	0.965 ± 0.064

Target	NP40-soluble protein abundance (concentration: 1mM)	NP40-soluble protein abundance (concentration: 2mM)	NP40-soluble protein abundance (concentration: 4mM)	NP40-soluble protein abundance (concentration: 6mM)	NP40-soluble protein abundance (concentration: 8mM)	NP40-soluble protein abundance (concentration: 10mM)
UniProt Q8TB72 and related entries	0.864 ± 0.02	0.909 ± 0.014	0.882 ± 0.027	0.9161 ± 0.0047	0.855 ± 0.0097	0.898 ± 0.026
CMAS (UniProt Q8NFW8)	1.11 ± 0.098	1.14 ± 0.068	1.14 ± 0.062	1.18 ± 0.11	1.26 ± 0.046	1.3 ± 0.065
CKAP2L (UniProt Q8IYA6)	1 ± 0.062	1.08 ± 0.044	1.08 ± 0.043	1.11 ± 0.086	1.11 ± 0.013	1.202 ± 0.0031
PLA2G15 (UniProt Q8NCC3)	0.914 ± 0.05	0.96 ± 0.042	0.962 ± 0.027	0.966 ± 0.036	0.901 ± 0.042	0.93 ± 0.078
UniProt Q8N108 and related entries	0.937 ± 0.063	0.988 ± 0.037	0.948 ± 0.021	0.999 ± 0.035	0.95 ± 0.022	0.965 ± 0.043
UniProt Q8IXQ5 and related entries	1.02 ± 0.057	1.04 ± 0.067	1.07 ± 0.07	1.05 ± 0.094	1.13 ± 0.12	1.118 ± 0.011
TTC5 (UniProt Q8N0Z6)	0.9498 ± 0.0036	0.933 ± 0.039	0.969 ± 0.04	0.95 ± 0.025	0.96 ± 0.033	0.985 ± 0.03
TRIM22 (UniProt Q8IYM9)	0.977 ± 0.074	0.995 ± 0.031	1.01 ± 0.099	1.05 ± 0.026	1.04 ± 0.021	0.964 ± 0.069
UniProt Q8N9B5 and related entries	0.97 ± 0.045	1.05 ± 0.095	1.01 ± 0.055	1.02 ± 0.048	1.02 ± 0.046	0.998 ± 0.028
PSD4 (UniProt Q8NDX1)	1.07 ± 0.069	1.05 ± 0.074	1.04 ± 0.058	1.07 ± 0.042	1.03 ± 0.076	1.04 ± 0.058
UBAC2 (UniProt Q8NBM4)	0.999 ± 0.057	0.971 ± 0.022	0.989 ± 0.021	0.972 ± 0.037	1.01 ± 0.019	1.01 ± 0.022
UniProt Q8IVT5 and related entries	1.02 ± 0.12	1.08 ± 0.04	1.13 ± 0.059	1.13 ± 0.1	1.11 ± 0.028	1.08 ± 0.054
WDR48 (UniProt Q8TAF3)	1.06 ± 0.078	1.03 ± 0.067	1.02 ± 0.047	1.01 ± 0.064	1.07 ± 0.025	1.08 ± 0.051
PTGR2 (UniProt Q8N8N7)	0.969 ± 0.032	0.982 ± 0.027	1.02 ± 0.11	1.05 ± 0.051	0.955 ± 0.041	1.03 ± 0.067
UniProt Q8N357	1.02 ± 0.052	1.04 ± 0.077	1.03 ± 0.024	1.06 ± 0.083	1.01 ± 0.15	1.03 ± 0.17
GALNT6 (UniProt Q8NCL4)	0.954 ± 0.084	0.915 ± 0.11	0.982 ± 0.038	0.9823 ± 0.0019	0.971 ± 0.063	1.07 ± 0.018
UniProt Q8NCD3 and related entries	0.97 ± 0.067	0.925 ± 0.1	1.03 ± 0.13	1.05 ± 0.18	1.03 ± 0.064	1.04 ± 0.1
MLKL (UniProt Q8NB16)	1.01 ± 0.09	1 ± 0.04	0.986 ± 0.056	0.962 ± 0.089	0.955 ± 0.055	0.995 ± 0.04
UniProt Q8IY63 and related entries	0.979 ± 0.054	1.01 ± 0.06	1.06 ± 0.069	1.09 ± 0.049	1.05 ± 0.024	1.07 ± 0.15
UniProt Q8IZM8	0.978 ± 0.048	1.01 ± 0.015	0.987 ± 0.023	1.03 ± 0.058	0.963 ± 0.029	1.01 ± 0.038

In another format: results already given.
UniProt Q8N108 and related entries
  NP40-soluble protein abundance (concentration: 1mM): 0.937 ± 0.063
  NP40-soluble protein abundance (concentration: 2mM): 0.988 ± 0.037
  NP40-soluble protein abundance (concentration: 4mM): 0.948 ± 0.021
  NP40-soluble protein abundance (concentration: 6mM): 0.999 ± 0.035
  NP40-soluble protein abundance (concentration: 8mM): 0.95 ± 0.022
  NP40-soluble protein abundance (concentration: 10mM): 0.965 ± 0.043
UniProt Q8N357
  NP40-soluble protein abundance (concentration: 1mM): 1.02 ± 0.052
  NP40-soluble protein abundance (concentration: 2mM): 1.04 ± 0.077
  NP40-soluble protein abundance (concentration: 4mM): 1.03 ± 0.024
  NP40-soluble protein abundance (concentration: 6mM): 1.06 ± 0.083
  NP40-soluble protein abundance (concentration: 8mM): 1.01 ± 0.15
  NP40-soluble protein abundance (concentration: 10mM): 1.03 ± 0.17
GALNT6 (UniProt Q8NCL4)
  NP40-soluble protein abundance (concentration: 1mM): 0.954 ± 0.084
  NP40-soluble protein abundance (concentration: 2mM): 0.915 ± 0.11
  NP40-soluble protein abundance (concentration: 4mM): 0.982 ± 0.038
  NP40-soluble protein abundance (concentration: 6mM): 0.9823 ± 0.0019
  NP40-soluble protein abundance (concentration: 8mM): 0.971 ± 0.063
  NP40-soluble protein abundance (concentration: 10mM): 1.07 ± 0.018
MLKL (UniProt Q8NB16)
  NP40-soluble protein abundance (concentration: 1mM): 1.01 ± 0.09
  NP40-soluble protein abundance (concentration: 2mM): 1 ± 0.04
  NP40-soluble protein abundance (concentration: 4mM): 0.986 ± 0.056
  NP40-soluble protein abundance (concentration: 6mM): 0.962 ± 0.089
  NP40-soluble protein abundance (concentration: 8mM): 0.955 ± 0.055
  NP40-soluble protein abundance (concentration: 10mM): 0.995 ± 0.04
